About 170 (0.05%) of roughly 340,000 compounds were called active. The shares of active, inactive and inconclusive entries below differ from those in the screen. The call rests on the fitted dose curve; in most records, active means well fitted inhibition curve with a large enough effect in the signal ratio, with a control signal flat (not every such curve was filed as active); inconclusive means small, poorly fitted or top-dose-only effect, or effect the other way, or a change in a side signal; inactive means flat fitted curve, though single readings scatter; the % refers to the signal ratio. Where the call is inconclusive, the potency comes from a doubtful curve fit.
Assay: qHTS Assay to Find Inhibitors of Chronic Active B-Cell Receptor Signaling;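 on activity change, negative = inhibition: plate controls were basal doxycycline-induced cells for no effect and cells given 10 µM MG132 for full effect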
Details: ABC-DLBCL IkBa-CBG/CBR reporter, luminescence ratio (green luciferase fused to IkBa over red control in TMD8 lymphoma cells), 4 h; activity change, negative = inhibition: at 46.1 µM (top of the series)
Procedure, shortened: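 Concentration-response series (up to 46 uM) were applied to TMD8 dual-reporter cells for 4 h at 37C with doxycycline. Green/red ratio, after filter-overlap correction, defined %Activity; red signal alone was normalised to basal cells and zero luminescence.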
Potency means the concentration at half of the fitted maximal effect.

Row | Structure (SMILES) | activity change, negative = inhibition | Potency
1 | CCCCOC(=O)C1=C(C)NC(=O)NC1c1cccc([N+](=O)[O-])c1 (stereo unspecified) | inactive | –
2 | CC[C@@]1(C(=O)OC)N[C@H](CN(C)C(=O)COc2ccccc2)[C@@H]2C(=O)N(C)C(=O)[C@@H]21 | inactive | –
3 | CC(NC(=O)Cn1ccsc1=N)C12CC3CC(CC(C3)C1)C2 (stereo unspecified) | inactive | –
4 | O=C(CN1CCCc2ccccc21)NCc1ccccc1Cl | inconclusive: -17.9% | –
5 | COc1cc(/C=C2/CCC/C(=C\c3cc(O)c(OC)c(Cl)c3)C2=O)cc(Cl)c1O | – | inconclusive: 3.16 µM [falling, full curve, poor fit]
6 | CN1CCCC(OC(=O)c2ccc3c(c2)OCCO3)C1 (stereo unspecified) | inconclusive: -23.7% | –
7 | COc1cc(/C=C2\SC(=S)N(CCC(=O)Nc3cccc(O)c3)C2=O)cc(OC)c1OC | – | inconclusive: 25.1 µM [falling, single point]
8 | Cn1c(N2CCN(C(=O)Nc3ccc(C(F)(F)F)cc3)CC2)nc2ccccc21 | inconclusive: 24.5% | –
9 | Cc1[nH][nH]c(=O)c1C(c1ccc(-c2ccc(C(=O)O)cc2)o1)c1c(C)[nH][nH]c1=O | – | inconclusive: 10 µM [falling, partial curve]
10 | O=C(NNC(=O)C1CCC1)c1ccc(Br)cc1 | inactive | –
11 | CCOCCCNCC(=O)NCC1CCCCC1 | – | inconclusive: 35.5 µM [falling, single point]
12 | COc1cc2ncnc(NCc3ccccc3C)c2cc1OC | inconclusive: -7.58% | –
13 | CN(C)c1ccc(C(=S)N2CCCCC2)cc1Br | inactive | –
14 | Cc1ccc(C(=O)OCC(=O)c2c[nH]c3ccccc23)cc1S(=O)(=O)N1CCOCC1 | – | inconclusive: 16.4 µM [falling, single point]
15 | COc1ccc(/C=C/CN2CCN(Cc3ccccc3)C(CCO)C2)cc1 (stereo unspecified) | inactive | –
16 | O=c1ccc2c([nH]1)CCCCCCCCCC2 | inactive | –
17 | COc1ccc(NC(=O)CCn2cccc2)cc1 | inconclusive: 0.258% | –
18 | Cc1c(C(=O)OCC(=O)NC(C)c2ccccc2)oc2ccccc12 (stereo unspecified) | inconclusive: 1.72% | –
19 | CCn1cc(C(=O)NCc2ccco2)c(=O)c2cc(S(=O)(=O)N3CCc4ccccc4C3)ccc21 | inconclusive: -0.732% | –
20 | O=C(NCc1ccc(Cl)cc1)C1CCN(S(=O)(=O)c2cc([N+](=O)[O-])ccc2Cl)CC1 | inconclusive: -4.84% | –
21 | Cc1ccsc1/C=N/n1c(-c2cccnc2)n[nH]c1=S | inactive | –

Whole records from above.
Cc1[nH][nH]c(=O)c1C(c1ccc(-c2ccc(C(=O)O)cc2)o1)c1c(C)[nH][nH]c1=O in the list: Potency: inconclusive: 10 µM [falling, partial curve]
COc1ccc(/C=C/CN2CCN(Cc3ccccc3)C(CCO)C2)cc1 (stereo unspecified) in the list: activity change, negative = inhibition: inactive
CN1CCCC(OC(=O)c2ccc3c(c2)OCCO3)C1 (stereo unspecified) in the list: activity change, negative = inhibition: inconclusive: -23.7%
COc1cc2ncnc(NCc3ccccc3C)c2cc1OC in the list: activity change, negative = inhibition: inconclusive: -7.58%

Remaining list, next part

Row | Structure (SMILES) | activity change, negative = inhibition | Potency
22 | O=C1C2ON(c3ccc(Br)cc3)C(c3cccnc3)C2C(=O)N1C1CCCCC1 (stereo unspecified) | – | inconclusive: 0.0291 µM [rising, full curve, poor fit]
23 | Cc1ccc(-c2nnn(CC(=O)N(Cc3cccs3)C(C(=O)NC3CCCCC3)c3ccco3)n2)o1 (stereo unspecified) | inactive | –
24 | CCCCSc1nc2sc3c(c2c(=O)n1-c1ccc(OC)cc1)CCN(C)C3 | inconclusive: -0.166% | –
25 | C/C(CCc1ccc2c(c1)OCO2)=N\NC(=O)c1ccccc1Cl | – | inconclusive: 29.1 µM [rising, single point]
26 | CCOc1ccccc1-c1cc(C(=O)N2CCOCC2)c2ccccc2n1 | – | inconclusive: 10 µM [falling, partial curve]
27 | NC(=O)c1ccc(NC(=O)c2ccc3c(c2)OCO3)cc1 | – | inconclusive: 6.51 µM [falling, partial curve]
28 | CN(C(=O)COC(=O)/C=C/c1ccc(Cl)c(Cl)c1)c1c(N)n(Cc2ccccc2)c(=O)[nH]c1=O | inactive | –
29 | O=C(c1cnn(C(=O)c2ccccc2F)c1)c1ccccc1O | inconclusive: -21.1% | –
30 | Cc1ccc(C(CNS(=O)(=O)c2ccc(Br)cc2)N2CCN(C)CC2)cc1 (stereo unspecified) | inconclusive: -17.1% | –
31 | Oc1ccccc1-c1nc(NCCN2CCOCC2)c2ccccc2n1 | inconclusive: 2.71% | –
32 | CS(=O)(=O)N(CC(=O)Nc1ccc(S(=O)(=O)N2CCCC2)cc1)c1cccc(F)c1 | inconclusive: 5.07% | –
33 | CCCC1(c2ccccc2)NC(=O)N(CC(=O)Nc2sc(-c3ccccc3)cc2C(=O)OCC)C1=O (stereo unspecified) | – | inconclusive: 8.2 µM [rising, partial curve, poor fit]
34 | COc1ccc(CC(=O)N2CCc3cc(OC)c(OC)cc3C2COc2cc(C)cc(C)c2)cc1OC (stereo unspecified) | inactive | –
35 | CCC1CCCCN1C(=O)CCC(=O)Nc1nnc(C(F)(F)F)s1 (stereo unspecified) | inconclusive: -143% | –
36 | COc1ccc2[nH]c3c(c2c1)CCN1C(=O)C(CC(=O)NCCC2=CCCCC2)C[C@H](C(=O)N(C(C)C)C(C)C)[C@@]31C (stereo partly specified) | inconclusive: -19.1% | –
37 | COC(=O)c1c(N)sc2c1CCN(c1ncc(C(F)(F)F)cc1Cl)C2 | inconclusive: -0.598% | –
38 | CN1CCN(c2ccc(Cl)cc2NC(=O)/C=C/c2cccc(F)c2)CC1 | inconclusive: -20.5% | –
39 | Oc1cccc(/C=N/Nc2ccc(Cl)nn2)c1O | – | inconclusive: 15.8 µM [cytotoxic, partial curve, poor fit]
40 | O=C(N/N=C/c1c(Cl)cccc1Cl)c1ccccc1F | inactive | –
41 | O=C(CSc1ccc(-c2ccco2)nn1)c1ccccc1 | – | inconclusive: 29.1 µM [falling, single point]
42 | Cc1cc(N2CCCN(C)CC2)nc2cc(Cl)ccc12 | inconclusive: -14.5% | –

Row | Structure (SMILES) | activity change, negative = inhibition | Potency
43 | CCn1c(C)nc2cc(C(=O)OC)ccc21 | inconclusive: 17% | –
44 | CCOC(=O)c1c(NC(=O)C(C)Sc2nnc(C)c(=O)[nH]2)sc2c1CCCC2 (stereo unspecified) | inconclusive: 22.4% | –
45 | O=C(Nc1ccc(S(=O)(=O)NCCc2ccccc2)cc1)c1ccc(Br)o1 | inconclusive: -0.262% | –
46 | Cc1ccc2[nH]nc(C(=O)N3CCCC(C(=O)c4ccc(Cl)cc4)C3)c2c1 (stereo unspecified) | – | inconclusive: 35.5 µM [falling, single point]
47 | O=C(Nc1nc(=O)c2ccccc2s1)c1ccc(F)cc1 | – | inconclusive: 11.6 µM [falling, single point]
48 | COc1ccccc1NC(=O)CC1COc2ccccc2O1 (stereo unspecified) | – | inconclusive: 31.6 µM [falling, partial curve]
49 | COc1ccc(O)c(/C=c2/sc3nc4cc(C)c(C)cc4n3c2=O)c1 | inconclusive: -2.7% | –
50 | CCOC(=O)Cc1csc(NC(NC(=O)CC)(C(F)(F)F)C(F)(F)F)n1 | inconclusive: 0.541% | –
51 | O=C1c2sc3nc4ccccc4n3c2C(=O)N1c1ccccc1Cl | inconclusive: 5.75% | –
52 | CCOc1cc(/C=C(\CC(=O)O)c2nc3ccccc3s2)ccc1OC | inconclusive: -12% | –
53 | CSCCC(NC(N)=O)C(=O)NCc1ccccc1Cl (stereo unspecified) | inconclusive: -1.16% | –
54 | Cc1ccc(C)c(CN2CCC(CNC(=O)Nc3ccc(Cl)cc3)CC2)c1 | inconclusive: 22.3% | –
55 | CSCCNC(=O)c1ccc(OC2CCN(CCc3ccccc3)CC2)cc1 | inactive | –
56 | Cc1cccc(-n2cc(-c3ccccc3)c3c(N4CCOCC4)ncnc32)c1 | inconclusive: 15.3% | –
57 | CSc1nnc(-c2ccc(S(=O)(=O)N3CCOCC3)cc2)n1CC1CCCO1 (stereo unspecified) | inconclusive: -10.5% | –
58 | COc1ccccc1/C=C/C=N/NC(=O)c1cccs1 | inconclusive: 245% | –
59 | c1ccc(CCn2nnnc2CN2CCN(C3CCCC3)CC2)cc1 | inconclusive: 14.6% | –
60 | Cc1ccc(C)c(N2CCN(c3ncnc4c3cnn4-c3ccccc3)CC2)c1 | inactive | –
61 | CCNC(=S)Nc1cccc(F)c1C | inactive | –
62 | COc1ccc(NC(=O)CCCSc2nc(-c3ccco3)cc(C(F)(F)F)n2)cc1OC | inconclusive: 13.2% | –
63 | CCC1CCCCN1C(=O)COc1ccc2c(c1)OCO2 (stereo unspecified) | inactive | –

Row | Structure (SMILES) | activity change, negative = inhibition | Potency
64 | Cn1c(=O)c2c(nc(SCCNS(=O)(=O)c3ccccc3)n2C)n(C)c1=O | inconclusive: -0.139% | –
65 | COC(=O)c1[nH]c2cccc(OC)c2c1NC(=O)CCN1CCN(c2ccccc2F)CC1 | – | inconclusive: 4.11 µM [falling, partial curve, poor fit]
66 | COc1cccc(-c2nc(CS(=O)CC(=O)NCc3ccccc3)c(C)o2)c1 (stereo unspecified) | inactive | –
67 | COC(=O)c1cc(OC)c(OC)cc1NC(=O)c1c(-c2ccccc2Cl)noc1C | inactive | –
68 | O=C(Nc1ccc(OC(=O)c2ccco2)cc1)c1ccco1 | inactive | –
69 | COc1ccc(CN(CC2CCCO2)C(=O)CN2C(=O)C(C)Oc3ccc(C)cc32)cc1OC (stereo unspecified) | – | inconclusive: 0.517 µM [falling, full curve, poor fit]
70 | COc1cc(CCC(=O)OCC(=O)N(CC(C)C)C2CCS(=O)(=O)C2)cc(OC)c1OC (stereo unspecified) | inactive | –
71 | CSc1ccc(/C=C/C(=O)c2ccc(NC(C)=O)cc2)cc1 | – | inconclusive: 18.4 µM [falling, single point]
72 | O=C(O)CC1S/C(=N/N=C/c2ccc(-c3ccccc3[N+](=O)[O-])o2)NC1=O (stereo unspecified) | – | inconclusive: 16.4 µM [falling, partial curve]
73 | Cc1ccc(-c2csc3ncnc(N4CCN(C(=O)c5ccco5)CC4)c23)cc1 | inactive | –
74 | COc1ccccc1/C=N/NC(=O)c1ccc(Br)cc1 | – | inconclusive: 31.6 µM [falling, partial curve]
75 | COc1ccc(C(=O)NNC(=O)Cc2nc3nc(C)cc(C)n3n2)cc1 | inactive | –
76 | c1ccc2cc(CSCc3nc4ccccc4[nH]3)ccc2c1 | inactive | –
77 | COc1ccc(CNC(=O)C2CCCN(S(=O)(=O)c3cccc4nsnc34)C2)cc1 (stereo unspecified) | inconclusive: -3.33% | –
78 | C[C@H](CO)N1C[C@H](C)[C@@H](CN(C)S(C)(=O)=O)Oc2ccc(NC(=O)CCN3CCOCC3)cc2C1=O | inconclusive: 3.78% | –
79 | COc1ccc(OC)c(Nc2nc(-c3cccs3)cs2)c1 | inconclusive: -13.5% | –
80 | COc1cccc(/C=C/C(=O)OCC(=O)N2c3ccccc3CC2C)c1OC (stereo unspecified) | inactive | –
81 | CCOc1nc(NC2CCCCC2)nc(NC(C)(C)C)n1 | – | inconclusive: 4.11 µM [rising, partial curve]
